PubChem BioAssay AID1259259 | Sanger Institute | 2017
Purpose: 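Kinome siRNA search for kinases essential alone or combined with trametinib, cetuximab or BYL719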 (primary screen). Cell system: SW1463 human colorectal cancer cells. Reagent: siRNA pool against human genes. Treatment: DMSO vehicle, or one anchor drug: BYL719 at 1 µM, cetuximab at 5 µg/ml, or trametinib at 10 nM. Measured: 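Viability as fraction of control pool 2 (non-targeting), replicate mean; knock-down robust z-score without any drug; synergy score averaged for each anchor drug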. Scale: robust z-score, knock-down alone: higher = more viable cells after knock-down; viability, knock-down alone: higher = more viable cells; synergy score with BYL719: higher = stronger synergy (synthetic lethal) with drug. Rule for the call: 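a robust z-score under -3 for knock-down with no drug marks the gene as essential, meaning viability loss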. Calls: active = essential: viability loss from knock-down alone; inactive = no change from knock-down alone.
The whole screen tested 794 reagents; below is an unselected part. Over the whole deposit, 9 (1.1%) got an active call. 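Calls rest on knock-down alone, not drug synergy; viability values seem capped at 1.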 Reagents against one gene are numbered here. Further read-outs or replicates are left out here. Not stated in the record: the amount of reagent, the time to read-out.

gene symbol	reagent	robust z-score, knock-down alone	viability, knock-down alone (fraction of control)	synergy score with BYL719	call
KCNH8	1	1.09	0.998	0.112	inactive
ACVRL1	1	1.13	1	0	inactive
RPS6KL1	1	0.661	0.97	0.0126	inactive
ALK	1	-1.16	0.853	0.0648	inactive
PAK4	1	0.388	0.953	-0.0474	inactive
NAGK	1	-0.0252	0.926	0.0905	inactive
STK40	1	-0.568	0.891	-0.0575	inactive
ILK	1	1.13	1	0	inactive
ILK	2	-0.242	0.912	0.0023	inactive
MAPK11	1	1.03	0.994	-0.00632	inactive
DMPK	1	0.0331	0.93	-0.0148	inactive
PRKD1	1	0.452	0.957	0.0706	inactive
ITPK1	1	1.13	1	0	inactive
RIOK3	1	1.13	1	0.0483	inactive
MAP3K2	1	0.605	0.967	-0.0335	inactive
GRK5	1	1.13	1	0	inactive
DGUOK	1	0.618	0.967	0.174	inactive
DGKH	1	-0.188	0.916	-0.0566	inactive
CLK3	1	-0.412	0.901	-0.0679	inactive
JAK2	1	-0.841	0.874	0.096	inactive
CDKL2	1	1.13	1	0.0227	inactive
TBCK	1	1.08	0.997	0.0493	inactive
CDK10	1	0.951	0.989	0.0484	inactive
MYLK4	1	1.13	1	0.072	inactive
SPHK2	1	0.412	0.954	-0.0459	inactive
ULK3	1	-0.529	0.894	-0.0154	inactive
MAP3K7	1	1.13	1	0.058	inactive
STYK1	1	-0.733	0.881	0.0775	inactive
CDKN2C	1	-0.737	0.88	0.0328	inactive
TRPM7	1	-1.03	0.862	-0.0818	inactive
ADGRL2	1	0.827	0.981	0.136	inactive
ATM	1	-0.3	0.908	0.0537	inactive
MAPK10	1	0.404	0.954	-0.00118	inactive
XYLB	1	-0.817	0.875	-0.112	inactive
CDC42BPA	1	-0.0601	0.924	-0.00897	inactive
AK4	1	0.386	0.952	0.0971	inactive
CHUK	1	1.13	1	0	inactive
CAMKK1	1	0.0732	0.932	0.00468	inactive
CDK5R2	1	0.984	0.991	0.0922	inactive
PRKAB2	1	-0.957	0.866	0.0714	inactive
CKMT1B	1	-2.57	0.763	-0.237	inactive
CASK	1	-0.151	0.918	0.0254	inactive
NTN4	1	-0.179	0.916	0.0425	inactive
LCK	1	0.241	0.943	0.0724	inactive
STK26	1	0.124	0.936	0.0498	inactive
SMAD2	1	0.29	0.946	0.143	inactive
EPHA10	1	1.13	1	0.00804	inactive
STRADB	1	-0.58	0.89	-0.0701	inactive
ROS1	1	-0.781	0.877	-0.0989	inactive
CALM1	1	-0.225	0.913	0.114	inactive
TAOK1	1	1.13	1	0.0994	inactive
CAMK2N1	1	-2.56	0.763	0.0998	inactive
PTK6	1	0.411	0.954	-0.046	inactive
PINK1	1	0.396	0.953	0.108	inactive
ERBB3	1	-1.31	0.844	0.0385	inactive
PRKD3	1	-0.103	0.921	-0.0139	inactive
PRKAG1	1	0.367	0.951	-0.0487	inactive
MELK	1	0.0314	0.93	-0.0703	inactive
IGF2R	1	1.13	1	0	inactive
ERBB4	1	0.963	0.99	0.0832	inactive
FN1	1	1.13	1	0	inactive
PFKFB1	1	-0.229	0.913	-0.0019	inactive
STK3	1	0.468	0.958	-0.0423	inactive

Reformatted: entries from further up.
gene symbol,reagent,"robust z-score, knock-down alone","viability, knock-down alone (fraction of control)",synergy score with BYL719,call
STK40,1,-0.568,0.891,-0.0575,inactive
ILK,1,1.13,1,0,inactive
ILK,2,-0.242,0.912,0.0023,inactive
